Measured values published in US11365216B2, “Antiviral immunotropic agent for the treatment of acute respiratory viral infections” (PVP LABS PTE. LTD., priority 2018, dated 2022).
Some entries share one result that the patent states for a list of compounds. Where a SMILES comes first, the peptide text is derived from it. [ ]: non-standard residue; d: D form.

Test system: influenza A virus/Aichi/2/69 (H3N2)
Experiment: influenza-induced pneumonia in mice
Format: in vivo
Conditions: control group 8.5 days

SMILES | mean lifetime ([…]) | mean lifetime (mice challenged with 10 LD50)
CCOC(=O)c1c(CSc2ccccc2)n(C)c2cc(Br)c(O)c(CN(C)C)c12 [ARBIDOL, reference compound] | 11 to 14 days | –
CC(C)C[C@H](NC(=O)[C@H](Cc1ccccc1)NC(=O)CNC(=O)[C@@H](C)NC(=O)[C@@H](N)Cc1ccc(O)cc1)C(=O)N[C@@H](CCCNC(=N)N)C(=O)O [Dalargin, tyrosyl-D-alanyl-glycyl-phenylalanyl-leucyl-arginine] (H-Y[dA]GFLR-OH) | – | 11 to 14 days
